Assay: Tracer dose biodistribution in xenografted PC3 tumor-bearing mice
Settings: Lu-177 labelled compound, 200 μCi/kg i.v., PC3 tumor-bearing nude mice
Description: In all studies, mice were administered 100 μL of ^177Lu-labelled test compound at 200 μCi/kg, i.v., with a residence time of 1 and 24 h per group (n=3-4). Tissues were analyzed in an LKB 1282 CompuGamma counter with appropriate standards.

In the case of `CSCC[C@H](NC(=O)[C@H](CC(C)C)NC(=O)[C@H](Cc1cnc[nH]1)NC(=O)CNC(=O)[C@@H](NC(=O)[C@H](C)NC(=O)[C@H](Cc1c[nH]c2ccccc12)NC(=O)[C@H](CCC(N)=O)NC(=O)CCCCCCCNC(=O)CN1CCN(CC(=O)O)CCN(CC(=O)O)CCN(CC(=O)O)CC1)C(C)C)C(N)=O` [Compound L134, DO3A monoatnide-aminooctanyl-BBN[7-14]], the “Kidneys, 1 hr” value (kidneys, 1 h) is reported as 7.65 % ID/g, the “Kidneys, 24 hr” value (kidneys, 24 h) is reported as 1.03 % ID/g and the “Pancreas, 1 hr” value (pancreas, 1 h) is reported as 28.60 % ID/g. For the same compound, the “Pancreas, 24 hr” value (pancreas, 24 h) was 1.01 % ID/g, the “Tumor, 1 hr” value (tumor, 1 h) was 3.66 % ID/g and the “Tumor, 24 hr” value (tumor, 24 h) was 1.52 % ID/g.

Reference: US7989417B2, “Linkers for radiopharmaceutical compounds” (Bracco Imaging S.p.A., priority 2003, dated 2011)
